According to paper PMC5698275:
Results are given in words; binding and its absence hold for the method and conditions named. Some binding calls cover weakened binding; strength is not graded here.

How the values were obtained:
[1] = biological target: T1, S100A8 protein (mouse (endogenous in bone marrow Gr1+CD11b+ cells)) (UniProt P27005); assay: condition: only in Gr1+CD11b+ cells from late septic mice; native gel or EMSA; lysate of bone marrow Gr1+CD11b+ cells from late septic mice (days 6-28 after CLP) resolved under non-denaturing conditions; immunoblot with anti-S100A8/A9 heterodimer antibody
T1 sequence: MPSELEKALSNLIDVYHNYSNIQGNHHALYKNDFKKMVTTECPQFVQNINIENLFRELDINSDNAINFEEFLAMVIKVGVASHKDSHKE

[2] = biological target: T1, S100A8 protein (mouse (endogenous in bone marrow Gr1+CD11b+ cells)); assay: native gel or EMSA; lysate of bone marrow Gr1+CD11b+ cells from early septic mice (days 1-5 after CLP) resolved under non-denaturing conditions; immunoblot with anti-S100A8/A9 heterodimer antibody; band of ~24 kDa

B1: S100A9 protein (protein, UniProt P31725 1-113)
chain: MANKAPSQMERSITTIIDTFHQYSRKEGHPDTLSKKEFRQMVEAQLATFMKKEKRNEALINDIMEDLDTNQDNQLSFEECMMLMAKLIFACHEKLHENNPRGHGHSHGKGCGK
For B1, the binding [1] was “no binding” and the binding [2] was “binds”.
